Source: patent US20050222029A1
No constants are given. Whether binding was seen depends on the method and setting. Binding calls can cover weak binding; strength is not graded here.

The chains behind the UniProt entries cited, without tags or fusion partners. Where a name states a change or a piece, a line headed by the entry shows the natural chain unless it says otherwise. Residues count along the entry.
UniProt Q9UI14: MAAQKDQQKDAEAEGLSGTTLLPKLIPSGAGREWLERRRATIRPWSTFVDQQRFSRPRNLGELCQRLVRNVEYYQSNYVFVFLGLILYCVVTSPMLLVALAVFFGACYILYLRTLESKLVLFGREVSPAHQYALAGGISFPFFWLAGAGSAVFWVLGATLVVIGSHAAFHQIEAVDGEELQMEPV
UniProt P04114: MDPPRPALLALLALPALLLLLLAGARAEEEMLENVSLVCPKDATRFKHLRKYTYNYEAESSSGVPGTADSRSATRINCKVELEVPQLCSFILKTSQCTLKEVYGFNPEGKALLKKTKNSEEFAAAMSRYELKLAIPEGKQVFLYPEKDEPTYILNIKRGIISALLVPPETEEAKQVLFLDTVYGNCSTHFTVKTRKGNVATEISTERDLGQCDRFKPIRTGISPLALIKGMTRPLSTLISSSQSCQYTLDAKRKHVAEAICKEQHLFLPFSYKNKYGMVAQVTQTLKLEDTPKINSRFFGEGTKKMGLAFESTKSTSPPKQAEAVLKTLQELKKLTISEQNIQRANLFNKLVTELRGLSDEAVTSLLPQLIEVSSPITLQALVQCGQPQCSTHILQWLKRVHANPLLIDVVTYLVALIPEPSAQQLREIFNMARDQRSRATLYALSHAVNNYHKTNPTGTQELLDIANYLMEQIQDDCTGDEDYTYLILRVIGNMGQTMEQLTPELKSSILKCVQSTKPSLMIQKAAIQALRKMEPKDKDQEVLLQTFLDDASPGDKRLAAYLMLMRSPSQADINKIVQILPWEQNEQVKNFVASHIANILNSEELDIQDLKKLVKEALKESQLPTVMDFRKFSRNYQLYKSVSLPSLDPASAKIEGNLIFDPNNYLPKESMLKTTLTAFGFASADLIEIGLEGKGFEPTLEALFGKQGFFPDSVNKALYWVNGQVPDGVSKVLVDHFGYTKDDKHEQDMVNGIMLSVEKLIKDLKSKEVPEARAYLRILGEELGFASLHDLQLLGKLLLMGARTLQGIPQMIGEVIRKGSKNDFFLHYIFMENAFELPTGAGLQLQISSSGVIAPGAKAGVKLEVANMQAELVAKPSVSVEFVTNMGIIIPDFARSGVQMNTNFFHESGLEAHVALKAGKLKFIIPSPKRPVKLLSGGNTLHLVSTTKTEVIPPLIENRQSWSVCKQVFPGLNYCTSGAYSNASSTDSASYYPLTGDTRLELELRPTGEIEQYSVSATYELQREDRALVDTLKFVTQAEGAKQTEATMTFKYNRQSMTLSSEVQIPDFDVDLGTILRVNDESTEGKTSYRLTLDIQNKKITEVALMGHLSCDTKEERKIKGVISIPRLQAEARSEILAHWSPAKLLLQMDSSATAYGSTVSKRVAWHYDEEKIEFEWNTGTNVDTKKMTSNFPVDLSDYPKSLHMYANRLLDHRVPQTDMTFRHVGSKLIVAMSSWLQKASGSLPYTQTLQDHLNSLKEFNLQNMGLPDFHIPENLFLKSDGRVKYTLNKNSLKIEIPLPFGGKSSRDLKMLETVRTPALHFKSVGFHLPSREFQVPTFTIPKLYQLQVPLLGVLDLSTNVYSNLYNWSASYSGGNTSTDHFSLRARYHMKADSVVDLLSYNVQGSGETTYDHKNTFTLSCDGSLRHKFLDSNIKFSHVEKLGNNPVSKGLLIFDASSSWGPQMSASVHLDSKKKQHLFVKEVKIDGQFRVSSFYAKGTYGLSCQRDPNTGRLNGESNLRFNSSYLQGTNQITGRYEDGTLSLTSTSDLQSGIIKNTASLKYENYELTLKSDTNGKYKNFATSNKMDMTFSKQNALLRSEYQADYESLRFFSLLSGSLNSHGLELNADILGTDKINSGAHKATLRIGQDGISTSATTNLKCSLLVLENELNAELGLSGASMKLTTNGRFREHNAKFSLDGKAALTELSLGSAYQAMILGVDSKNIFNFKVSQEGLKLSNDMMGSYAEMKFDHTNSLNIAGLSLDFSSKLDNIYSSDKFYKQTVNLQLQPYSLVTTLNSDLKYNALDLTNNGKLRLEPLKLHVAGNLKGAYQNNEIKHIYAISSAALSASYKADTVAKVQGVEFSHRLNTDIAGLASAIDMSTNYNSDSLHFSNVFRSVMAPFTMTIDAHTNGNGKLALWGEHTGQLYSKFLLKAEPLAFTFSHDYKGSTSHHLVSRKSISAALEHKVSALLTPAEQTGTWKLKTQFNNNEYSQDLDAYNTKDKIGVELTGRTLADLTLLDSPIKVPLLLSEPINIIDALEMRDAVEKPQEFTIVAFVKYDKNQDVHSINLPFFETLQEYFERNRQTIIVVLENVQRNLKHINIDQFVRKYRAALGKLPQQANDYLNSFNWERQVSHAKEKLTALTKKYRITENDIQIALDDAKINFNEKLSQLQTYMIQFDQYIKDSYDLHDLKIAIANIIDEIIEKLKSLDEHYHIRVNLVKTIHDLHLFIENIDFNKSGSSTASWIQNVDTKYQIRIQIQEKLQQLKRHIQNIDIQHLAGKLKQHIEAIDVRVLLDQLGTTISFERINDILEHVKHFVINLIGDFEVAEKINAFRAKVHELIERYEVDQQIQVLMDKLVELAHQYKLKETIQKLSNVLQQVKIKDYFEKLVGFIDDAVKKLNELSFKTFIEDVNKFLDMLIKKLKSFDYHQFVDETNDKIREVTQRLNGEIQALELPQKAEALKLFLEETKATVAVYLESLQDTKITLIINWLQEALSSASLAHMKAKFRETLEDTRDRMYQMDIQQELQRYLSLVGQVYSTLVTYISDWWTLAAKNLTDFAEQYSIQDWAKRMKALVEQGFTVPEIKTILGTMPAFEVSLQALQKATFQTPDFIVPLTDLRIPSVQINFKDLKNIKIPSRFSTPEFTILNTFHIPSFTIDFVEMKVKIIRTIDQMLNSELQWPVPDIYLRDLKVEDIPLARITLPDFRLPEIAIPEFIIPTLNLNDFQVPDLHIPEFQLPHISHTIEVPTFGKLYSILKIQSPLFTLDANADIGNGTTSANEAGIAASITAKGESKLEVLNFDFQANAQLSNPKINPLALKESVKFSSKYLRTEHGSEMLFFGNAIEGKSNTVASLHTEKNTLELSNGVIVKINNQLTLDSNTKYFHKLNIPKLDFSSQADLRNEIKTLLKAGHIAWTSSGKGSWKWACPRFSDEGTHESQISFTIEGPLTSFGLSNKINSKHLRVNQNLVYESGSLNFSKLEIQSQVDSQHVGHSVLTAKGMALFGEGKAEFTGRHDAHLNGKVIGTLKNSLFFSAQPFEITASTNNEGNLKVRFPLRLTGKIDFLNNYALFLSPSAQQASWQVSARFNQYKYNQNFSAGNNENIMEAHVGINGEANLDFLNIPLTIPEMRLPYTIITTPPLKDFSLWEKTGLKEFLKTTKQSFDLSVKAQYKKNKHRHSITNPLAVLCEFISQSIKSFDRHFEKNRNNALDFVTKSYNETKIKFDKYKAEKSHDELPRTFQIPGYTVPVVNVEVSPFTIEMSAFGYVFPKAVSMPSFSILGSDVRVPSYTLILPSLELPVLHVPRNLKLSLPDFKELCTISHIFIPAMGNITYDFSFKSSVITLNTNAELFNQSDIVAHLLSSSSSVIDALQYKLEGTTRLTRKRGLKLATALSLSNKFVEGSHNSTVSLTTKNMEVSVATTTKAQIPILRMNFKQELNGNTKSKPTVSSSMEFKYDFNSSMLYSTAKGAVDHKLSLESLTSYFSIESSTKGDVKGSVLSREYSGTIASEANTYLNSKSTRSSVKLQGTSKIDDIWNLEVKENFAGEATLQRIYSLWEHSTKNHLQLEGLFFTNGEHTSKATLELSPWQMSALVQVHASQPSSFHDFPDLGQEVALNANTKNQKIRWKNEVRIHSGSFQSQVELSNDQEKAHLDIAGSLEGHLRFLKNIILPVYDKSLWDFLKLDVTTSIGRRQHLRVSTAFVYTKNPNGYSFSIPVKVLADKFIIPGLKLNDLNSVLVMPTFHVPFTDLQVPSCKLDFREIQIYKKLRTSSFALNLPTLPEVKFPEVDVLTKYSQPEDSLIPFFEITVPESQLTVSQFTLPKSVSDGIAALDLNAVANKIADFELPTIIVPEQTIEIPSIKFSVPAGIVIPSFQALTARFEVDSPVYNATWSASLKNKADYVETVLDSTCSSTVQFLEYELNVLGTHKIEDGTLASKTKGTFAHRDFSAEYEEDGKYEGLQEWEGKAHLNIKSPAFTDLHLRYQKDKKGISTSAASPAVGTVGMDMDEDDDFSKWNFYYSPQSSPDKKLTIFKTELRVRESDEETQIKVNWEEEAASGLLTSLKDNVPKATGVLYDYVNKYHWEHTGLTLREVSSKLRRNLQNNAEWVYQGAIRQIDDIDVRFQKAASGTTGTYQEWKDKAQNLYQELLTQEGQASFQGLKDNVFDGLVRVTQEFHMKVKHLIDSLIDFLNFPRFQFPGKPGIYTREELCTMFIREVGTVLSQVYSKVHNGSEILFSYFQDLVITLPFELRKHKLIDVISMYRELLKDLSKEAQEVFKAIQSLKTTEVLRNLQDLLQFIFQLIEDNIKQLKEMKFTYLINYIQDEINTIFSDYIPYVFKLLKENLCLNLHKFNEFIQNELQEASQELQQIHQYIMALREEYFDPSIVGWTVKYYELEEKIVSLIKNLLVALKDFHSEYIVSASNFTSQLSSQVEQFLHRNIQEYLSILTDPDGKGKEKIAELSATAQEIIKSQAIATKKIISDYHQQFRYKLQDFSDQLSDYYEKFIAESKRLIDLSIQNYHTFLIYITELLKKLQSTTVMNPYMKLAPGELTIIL
UniProt P32418: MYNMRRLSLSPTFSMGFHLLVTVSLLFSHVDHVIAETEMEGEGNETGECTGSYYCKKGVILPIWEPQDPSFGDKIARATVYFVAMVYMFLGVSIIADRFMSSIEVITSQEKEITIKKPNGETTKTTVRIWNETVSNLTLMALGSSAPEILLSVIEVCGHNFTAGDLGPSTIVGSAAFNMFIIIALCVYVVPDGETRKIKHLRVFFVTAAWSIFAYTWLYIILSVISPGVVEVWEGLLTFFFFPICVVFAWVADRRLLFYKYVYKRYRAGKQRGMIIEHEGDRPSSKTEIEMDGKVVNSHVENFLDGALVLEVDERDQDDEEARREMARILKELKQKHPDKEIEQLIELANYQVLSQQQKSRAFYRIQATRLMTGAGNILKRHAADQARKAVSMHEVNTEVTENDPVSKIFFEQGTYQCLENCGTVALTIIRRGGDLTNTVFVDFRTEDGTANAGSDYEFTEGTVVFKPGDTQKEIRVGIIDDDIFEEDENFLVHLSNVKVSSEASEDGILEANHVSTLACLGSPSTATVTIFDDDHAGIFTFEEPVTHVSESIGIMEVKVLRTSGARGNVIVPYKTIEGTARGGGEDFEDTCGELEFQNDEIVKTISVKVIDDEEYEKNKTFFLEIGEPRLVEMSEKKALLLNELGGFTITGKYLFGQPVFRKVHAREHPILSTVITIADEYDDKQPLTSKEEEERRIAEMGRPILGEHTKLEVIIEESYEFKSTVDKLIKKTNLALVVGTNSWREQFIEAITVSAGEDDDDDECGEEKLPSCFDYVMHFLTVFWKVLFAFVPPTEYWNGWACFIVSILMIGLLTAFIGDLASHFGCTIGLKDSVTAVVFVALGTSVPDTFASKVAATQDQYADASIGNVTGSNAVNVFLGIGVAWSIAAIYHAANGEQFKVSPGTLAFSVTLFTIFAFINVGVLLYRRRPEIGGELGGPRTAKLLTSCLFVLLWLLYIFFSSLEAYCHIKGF
UniProt Q13438: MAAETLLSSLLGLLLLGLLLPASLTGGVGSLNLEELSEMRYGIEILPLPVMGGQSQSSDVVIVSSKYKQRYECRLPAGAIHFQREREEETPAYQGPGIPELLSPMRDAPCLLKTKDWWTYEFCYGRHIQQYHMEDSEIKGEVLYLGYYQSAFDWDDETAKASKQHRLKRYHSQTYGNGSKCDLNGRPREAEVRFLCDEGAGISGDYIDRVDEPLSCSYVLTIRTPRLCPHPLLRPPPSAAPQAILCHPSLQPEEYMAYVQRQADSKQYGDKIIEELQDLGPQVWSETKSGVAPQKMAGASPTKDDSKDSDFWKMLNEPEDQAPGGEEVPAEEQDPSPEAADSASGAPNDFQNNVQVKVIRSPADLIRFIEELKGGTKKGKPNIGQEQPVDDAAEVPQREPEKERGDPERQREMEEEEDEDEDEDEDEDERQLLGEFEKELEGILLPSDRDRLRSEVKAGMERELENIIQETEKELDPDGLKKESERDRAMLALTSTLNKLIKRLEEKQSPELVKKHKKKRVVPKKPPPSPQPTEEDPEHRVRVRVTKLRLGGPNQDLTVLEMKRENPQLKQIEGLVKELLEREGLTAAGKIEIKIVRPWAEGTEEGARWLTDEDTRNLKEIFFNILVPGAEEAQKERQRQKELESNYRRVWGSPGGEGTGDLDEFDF
UniProt O15392, residues 52-142: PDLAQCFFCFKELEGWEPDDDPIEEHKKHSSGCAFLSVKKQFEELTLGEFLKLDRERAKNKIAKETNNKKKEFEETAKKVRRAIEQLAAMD
UniProt Q99816, residues 317-390: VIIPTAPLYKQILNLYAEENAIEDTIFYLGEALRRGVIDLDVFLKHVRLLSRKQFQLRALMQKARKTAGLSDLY

Experiments:
[1] = biological target: T1, golgi autoantigen, 84 kD protein (Golgin-84) 534-731 (human) (UniProt Q8TBA6); assay: yeast two-hybrid
T1 sequence (looked up): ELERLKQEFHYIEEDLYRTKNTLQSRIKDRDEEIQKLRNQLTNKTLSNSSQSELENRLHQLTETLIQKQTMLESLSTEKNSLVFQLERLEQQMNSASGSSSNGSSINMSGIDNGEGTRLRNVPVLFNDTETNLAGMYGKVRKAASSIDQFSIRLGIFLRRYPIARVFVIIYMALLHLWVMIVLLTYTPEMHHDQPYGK

[2] = biological target: T2, golgi autoantigen, 84 kD protein (Golgin-84) 563-731 (human) (UniProt Q8TBA6); assay: yeast two-hybrid
T2 sequence (looked up): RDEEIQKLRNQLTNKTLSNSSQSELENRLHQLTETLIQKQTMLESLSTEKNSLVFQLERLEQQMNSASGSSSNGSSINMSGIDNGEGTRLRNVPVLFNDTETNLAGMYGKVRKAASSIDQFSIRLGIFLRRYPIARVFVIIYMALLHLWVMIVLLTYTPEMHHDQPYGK

[3] = biological target: prenylated Rab acceptor 1 (PRA1) 1-185 (human) (UniProt Q9UI14); assay: yeast two-hybrid, liver library
[4] = biological target: prenylated Rab acceptor 1 (PRA1) 1-185 (human) (UniProt Q9UI14); assay: yeast two-hybrid
[5] = biological target: T3, golgi autoantigen, 84 kD protein (Golgin-84) 512-726 (human) (UniProt Q8TBA6); assay: yeast two-hybrid
T3 sequence (looked up): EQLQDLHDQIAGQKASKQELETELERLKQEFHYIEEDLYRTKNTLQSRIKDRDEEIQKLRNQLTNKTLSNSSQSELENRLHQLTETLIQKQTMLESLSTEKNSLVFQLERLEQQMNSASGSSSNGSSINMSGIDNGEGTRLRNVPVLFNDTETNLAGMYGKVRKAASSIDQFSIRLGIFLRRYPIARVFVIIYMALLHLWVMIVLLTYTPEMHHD

[6] = biological target: T4, hypothetical protein FLJ20724 (FLJ20724) 162-248 (human) (UniProt Q9H0C5); assay: yeast two-hybrid
T4 sequence (looked up): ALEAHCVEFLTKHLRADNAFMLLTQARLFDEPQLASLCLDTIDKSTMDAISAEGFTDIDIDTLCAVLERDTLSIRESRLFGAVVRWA

[7] = biological target: apolipoprotein B-100 (APOB) 4307-4522 (human) (UniProt P04114); assay: yeast two-hybrid
[8] = biological target: Na^+/Ca^2+-exchange protein 1 (SLC8A1) 302-575 (human) (UniProt P32418); assay: yeast two-hybrid
[9] = biological target: Amplified in osteosarcoma-9 (OS-9) 171-350 (human) (UniProt Q13438); assay: yeast two-hybrid
[10] = biological target: Amplified in osteosarcoma-9 (OS-9) 213-503 (human) (UniProt Q13438); assay: yeast two-hybrid
[11] = biological target: Amplified in osteosarcoma-9 (OS-9) 171-350 (human) (UniProt Q13438); assay: yeast two-hybrid, brain library
[12] = biological target: Amplified in osteosarcoma-9 (OS-9) 213-503 (human) (UniProt Q13438); assay: yeast two-hybrid, brain library

Measured: binding

Apolipoprotein A-I (APOA1) 23-267 (from UniProt P02647)
binds: [1] | [2]

Apolipoprotein A-I (APOA1) 106-267 (from UniProt P02647)
binds: [3] | [4] | [5] | [6] | [7]

Survivin (BIRC5) 52-143 (from UniProt O15392 52-142)
binds: [8]

Tumor Suppressor (TSG101) 317-391 (from UniProt Q99816 317-390)
binds: [9] | [10] | [11] | [12]
